According to US10118131B2, “Method for preventing microbial growth on a filtration membrane” (KEMIRA OYJ, priority 2011, dated 2018):

Test: Laboratory scale continuous filtration experiment, PFA added continuously into feed
Conditions: 19.8 ppm active substance continuously in feed, 15 bar, sea salt 2 g/l, 20° C.
Procedure: The impact of PFA on membrane was further studied by a laboratory scale continuous filtration experiment. The type of membrane used in the experiment was brackish water membrane (FilmTec BW30LE).
The continuous filtration has been done in parallel. From a single brackish water tank the water was pumped to two parallel lines with flat sheet cells having similar brackish water membrane. In one line PFA was added continuously into feed and in other line (control) there was no PFA addition. The filtration conditions were as follows: pressure 15 bar, salt (sea salt): 2 g/l, Temperature: 20° C., flow rate: 48 l/h, PFA dosing rate: 6.5 g/h equilibrium solution having PFA active substance concentration 14 weight-% (=19.8 ppm active substance/l of brackish water). Flux and conductivity of permeate and concentrate were monitored and collected over time (for 30 days).

What does the source list for O=COO [Performic acid, performic acid]?
Initial salt rejection: 98%; Final salt rejection (30 days): 98%
